PubChem BioAssay AID1259254, NCATS – 2017
In all, the deposit lists about 59,000 reagents; shown is an unselected part. Over the whole deposit, about 1,550 (2.6%) got an active call. 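G2 share is only a proxy for re-replication; each gene was hit by three separate siRNAs, and active genes were retested.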 Reagents against one gene are numbered here. Not all columns of the deposit are shown. No sequences are given here. Not stated in the record: the amount of reagent.

Purpose: 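Genome-wide screen for genes that prevent DNA re-replication in cancer cells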 (primary screen)
System: human HCT116 colorectal cancer cells
Knock-down reagent: single siRNA against human genes
Duration: 3 days
Measurement: 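Nuclei stained with Hoechst and imaged; cell-cycle phase assigned by DNA content; G2 share scaled per plate, non-targeting siRNA 0%, GMNN siRNA 100%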
Direction: G2 robust z-score: higher = more G2 cells, more excess DNA replication
Rule for the call: 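Active siRNAs have a G2 robust z of 5 or more median absolute deviations over the median, which in these data means about 38% or higher of GMNN control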

target,siRNA no.,G2 robust z-score,call
ADAD2,1,-0.0118,inactive
ADAD2,2,-0.709,inactive
ADAD2,3,1.12,inactive
ATP6V1G1,1,-0.404,inactive
ATP6V1G1,2,-0.474,inactive
ATP6V1G1,3,8.27,active
DR1,1,0.722,inactive
DR1,2,-0.906,inactive
DR1,3,-0.461,inactive
MAP6,1,0.223,inactive
MAP6,2,-0.474,inactive
MAP6,3,2.3,inactive
HSPB1,1,1.81,inactive
HSPB1,2,-0.343,inactive
HSPB1,3,2.35,inactive
TRAPPC2L,1,0.495,inactive
TRAPPC2L,2,3.25,inactive
TRAPPC2L,3,0.863,inactive
SAYSD1,1,0.535,inactive
SAYSD1,2,0.231,inactive
SAYSD1,3,-0.388,inactive
TFCP2,1,0.635,inactive
TFCP2,2,-0.202,inactive
TFCP2,3,0.572,inactive
CHST1,1,0.0566,inactive
CHST1,2,-0.805,inactive
CHST1,3,-0.116,inactive
ZMYND19,1,-0.186,inactive
ZMYND19,2,-0.29,inactive
ZMYND19,3,0.484,inactive
SMARCC1,1,-0.255,inactive
SMARCC1,2,0.882,inactive
SMARCC1,3,-1.12,inactive

The list goes on, starting with the last 9 of the part before.
target,siRNA no.,G2 robust z-score,call
CHST1,1,0.0566,inactive
CHST1,2,-0.805,inactive
CHST1,3,-0.116,inactive
ZMYND19,1,-0.186,inactive
ZMYND19,2,-0.29,inactive
ZMYND19,3,0.484,inactive
SMARCC1,1,-0.255,inactive
SMARCC1,2,0.882,inactive
SMARCC1,3,-1.12,inactive
RPUSD4,1,-1.12,inactive
RPUSD4,2,4.35,inactive
RPUSD4,3,0.246,inactive
NALF2,1,-0.727,inactive
NALF2,2,2.5,inactive
NALF2,3,0.572,inactive
HEATR9,1,1.6,inactive
HEATR9,2,-0.686,inactive
HEATR9,3,-0.644,inactive
POLR3E,1,0.174,inactive
POLR3E,2,-0.799,inactive
POLR3E,3,-0.548,inactive
RPL29P30,1,2.95,inactive
RPL29P30,2,4.31,inactive
RPL29P30,3,-0.62,inactive
SUPT20HL2,1,2.1,inactive
SUPT20HL2,2,0.0873,inactive
SUPT20HL2,3,-0.117,inactive
SLC22A11,1,2.03,inactive
SLC22A11,2,2.23,inactive
SLC22A11,3,-0.685,inactive
TRAFD1,1,1.72,inactive
TRAFD1,2,-0.162,inactive
TRAFD1,3,0.528,inactive
PP2D1,1,-1.14,inactive
PP2D1,2,1.8,inactive
PP2D1,3,0.077,inactive
QRFPR,1,-0.749,inactive
QRFPR,2,0.159,inactive
QRFPR,3,0.244,inactive
SH2B2,1,-0.839,inactive
SH2B2,2,-0.296,inactive
SH2B2,3,-0.827,inactive
DDX31,1,-0.84,inactive
DDX31,2,-0.255,inactive
DDX31,3,-0.757,inactive
